# Measurements: US7868177B2, “Multi-cyclic compounds and method of use” (Amgen Inc., priority 2006, dated 2011)
# By UniProt entry, the sequences of proteins in these tests, tags left out. Residues count along the entry.
# UniProt Q02763, 23-1124: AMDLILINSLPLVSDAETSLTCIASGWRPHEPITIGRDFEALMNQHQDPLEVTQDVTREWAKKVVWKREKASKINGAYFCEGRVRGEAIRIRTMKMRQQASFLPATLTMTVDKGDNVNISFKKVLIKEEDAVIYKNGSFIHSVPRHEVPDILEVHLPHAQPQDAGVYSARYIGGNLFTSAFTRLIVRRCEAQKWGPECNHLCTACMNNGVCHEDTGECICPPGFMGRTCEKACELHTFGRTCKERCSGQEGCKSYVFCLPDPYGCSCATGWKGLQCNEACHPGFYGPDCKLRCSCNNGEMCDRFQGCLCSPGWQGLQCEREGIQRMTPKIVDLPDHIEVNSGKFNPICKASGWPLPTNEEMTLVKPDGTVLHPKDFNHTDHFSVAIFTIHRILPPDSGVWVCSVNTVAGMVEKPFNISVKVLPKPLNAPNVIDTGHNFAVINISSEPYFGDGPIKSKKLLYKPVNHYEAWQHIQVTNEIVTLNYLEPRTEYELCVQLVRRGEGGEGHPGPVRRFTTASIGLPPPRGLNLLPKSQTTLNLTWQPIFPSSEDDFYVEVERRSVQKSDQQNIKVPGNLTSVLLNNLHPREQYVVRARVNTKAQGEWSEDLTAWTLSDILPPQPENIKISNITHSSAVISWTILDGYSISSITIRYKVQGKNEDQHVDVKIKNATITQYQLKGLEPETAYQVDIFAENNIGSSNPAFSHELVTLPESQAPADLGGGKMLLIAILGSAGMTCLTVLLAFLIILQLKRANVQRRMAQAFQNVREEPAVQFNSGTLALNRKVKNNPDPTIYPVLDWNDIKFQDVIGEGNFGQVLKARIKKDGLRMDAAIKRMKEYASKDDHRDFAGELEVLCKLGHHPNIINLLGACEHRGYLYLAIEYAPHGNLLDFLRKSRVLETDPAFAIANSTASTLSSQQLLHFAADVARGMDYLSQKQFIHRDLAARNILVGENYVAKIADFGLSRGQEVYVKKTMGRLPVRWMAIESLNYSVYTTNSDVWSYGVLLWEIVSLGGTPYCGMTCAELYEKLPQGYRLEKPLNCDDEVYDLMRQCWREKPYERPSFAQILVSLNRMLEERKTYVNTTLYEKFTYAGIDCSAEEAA
# Some results were stated once for a whole list of compounds, not compound by compound.
# Target: Tie-2 kinase enzyme (Homo sapiens, UniProt Q02763)
# Assay: Tie-2 Homogenous Time Resolved Fluorescent (HTRF) kinase assay
# Type: biochemical
# Settings: read-out: IC50's for the inhibition of Tie-2 as measured by the HTRF assay
row,Structure (SMILES),IC50 [µM]
1,"CNc1nccc(-c2cccnc2Oc2ccc(Nc3nc4ccccc4s3)cc2)n1 [Example 61, N-(4-((3-(2-(methylamino)-4-pyrimidinyl)-2-pyridinyl)oxy)phenyl)-1,3-benzothiazol-2-amine]",≤ 5
2,"CNc1nccc(-c2cccnc2Oc2ccc(Nc3nc4cscc4[nH]3)cc2)n1 [Example 102, N-(4-(3-(2-(methylamino)pyrimidin-4-yl)pyridin-2-yloxy)phenyl)-1H-thieno[3,4-d]imidazol-2-amine]",≤ 5
3,"Fc1ccc2[nH]c(Nc3ccc(Oc4ncccc4-c4ccnc5[nH]ccc45)cc3)nc2c1F [Example 105, 4,5-difluoro-N-(4-((3-(1H-pyrrolo[2,3-b]pyridin-4-yl)-2-pyridinyl)oxy)phenyl)-1H-benzimidazol-2-amine]",≤ 5
4,"Nc1nccc(-c2cccnc2Oc2ccc(Nc3nc4c(F)c(F)ccc4[nH]3)cc2)n1 [Example 55, N-(4-((3-(2-amino-4-pyrimidinyl)-2-pyridinyl)oxy)phenyl)-4,5-difluoro-1H-benzimidazol-2-amine]",≤ 5
5,"CNc1nccc(-c2cccnc2Oc2ccc(Nc3nc4cc(C)ccc4[nH]3)cc2C)n1 [Example 64, 5-methyl-N-(3-methyl-4-((3-(2-(methylamino)-4-pyrimidinyl)-2-pyridinyl)oxy)phenyl)-1H-benzimidazol-2-amine]",≤ 5
6,"CN(C)CCCNc1nccc(-c2cccnc2Oc2ccc(Nc3nc4ccccc4[nH]3)c3ccccc23)n1 [Example 26, N~1~-(4-(2-((4-(1H-benzimidazol-2-ylamino)-1-naphthalenyl)oxy)-3-pyridinyl)-2-pyrimidinyl)-N~3~,N~3~-dimethyl-1,3-propanediamine]",≤ 5
7,"CNc1nccc(-c2cccnc2Oc2ccc(Nc3nc4ccccc4n3CCCN(C)C)c3ccccc23)n1 [Example 33, 1-(3-(dimethylamino)propyl)-N-(4-((3-(2-(methylamino)-4-pyrimidinyl)-2-pyridinyl)oxy)-1-naphthalenyl)-1H-benzimidazol-2-amine]",≤ 5
8,"CNc1nccc(-c2cccnc2Oc2ccc(Nc3nc4cc(Cl)c(Cl)cc4[nH]3)cc2)n1 [Example 84, 5,6-dichloro-N-(4-((3-(2-(methylamino)-4-pyrimidinyl)-2-pyridinyl)oxy)phenyl)-1H-benzimidazol-2-amine]",≤ 5
9,"CNc1nccc(-c2cccnc2Oc2ccc(Nc3nc4ccccc4[nH]3)c3cccnc23)n1 [Example 38, N-1H-benzimidazol-2-yl-8-((3-(2-(methylamino)-4-pyrimidinyl)-2-pyridinyl)oxy)-5-quinolinamine]",≤ 5
10,"CNc1nccc(-c2cccnc2Oc2ccc(Nc3nc4cc(C(F)(F)F)ccc4[nH]3)cc2)n1 [Example 63, N-(4-((3-(2-(methylamino)-4-pyrimidinyl)-2-pyridinyl)oxy)phenyl)-5-(trifluoromethyl)-1H-benzimidazol-2-amine]",≤ 5
11,"Fc1ccc2[nH]c(Nc3ccc(Oc4ncccc4-c4cn[nH]c4)cc3)nc2c1F [Example 53, 4,5-difluoro-N-(4-((3-(1H-pyrazol-4-yl)-2-pyridinyl)oxy)phenyl)-1H-benzimidazol-2-amine]",≤ 5
12,"CNc1nccc(-c2cccnc2Oc2ccc(Nc3nc4ccccc4[nH]3)cn2)n1 [Example 4, N-(6-(3-(2-(methylamino)pyrimidin-4-yl)pyridin-2-yloxy)pyridin-3-yl)-1H-benzo[d]imidazol-2-amine]",≤ 5
13,"CNc1nccc(-c2cccnc2Oc2ccc(Nc3nc4cc(F)c(F)cc4[nH]3)c3ccccc23)n1 [Example 20, 5,6-difluoro-N-(4-((3-(2-(methylamino)-4-pyrimidinyl)-2-pyridinyl)oxy)-1-naphthalenyl)-1H-benzimidazol-2-amine]",≤ 5
14,"CNc1nccc(-c2cccnc2Oc2ccc(Nc3nc4c(F)cc(F)cc4[nH]3)cc2)n1 [Example 81, 4,6-difluoro-N-(4-((3-(2-(methylamino)-4-pyrimidinyl)-2-pyridinyl)oxy)phenyl)-1H-benzimidazol-2-amine]",≤ 5
15,"CN(C)CCCCNc1nccc(-c2cccnc2Oc2ccc(Nc3nc4cc(F)c(F)cc4[nH]3)cc2)n1 [Example 96, N′-(4-(2-((4-((5,6-difluoro-1H-benzimidazol-2-yl)amino)phenyl)oxy)-3-pyridinyl)-2-pyrimidinyl)-N,N-dimethyl-1,4-butanediamine]",≤ 5
16,"CNc1nccc(-c2cccnc2Oc2ccc(Nc3nc4cc(F)c(Cl)cc4[nH]3)c3ccccc23)n1 [Example 23, 6-chloro-5-fluoro-N-(4-((3-(2-(methylamino)-4-pyrimidinyl)-2-pyridinyl)oxy)-1-naphthalenyl)-1H-benzimidazol-2-amine]",≤ 5
17,"CN(C)CCCNc1nccc(-c2cccnc2Oc2ccc(Nc3nc4cc(F)c(F)cc4[nH]3)cc2)n1 [Example 89, N′-(4-(2-((4-((5,6-difluoro-1H-benzimidazol-2-yl)amino)phenyl)oxy)-3-pyridinyl)-2-pyrimidinyl)-N,N-dimethyl-1,3-propanediamine]",≤ 5
18,"CNc1cc(-c2cccnc2Oc2ccc(Nc3nc4ccccc4[nH]3)cc2)ccn1 [Example 43, 2-((4-(1H-benzimidazol-2-ylamino)phenyl)oxy)-N-methyl-3,4′-bipyridin-2′-amine]",≤ 5
19,"CNc1nccc(-c2cccnc2Oc2ccc(Nc3nc4c(F)c(F)ccc4[nH]3)c(F)c2)n1 [Example 112, 4,5-difluoro-N-(2-fluoro-4-((3-(2-(methylamino)-4-pyrimidinyl)-2-pyridinyl)oxy)phenyl)-1H-benzimidazol-2-amine]",≤ 5
20,"Cn1c(Nc2ccc(Oc3ncccc3-c3ccnc(N)n3)cc2)nnc1-c1ccccc1 [Example 6, 4-(2-(4-(4-methyl-5-phenyl-4H-1,2,4-triazol-3-ylamino)phenoxy)pyridin-3-yl)pyrimidin-2-amine]",≤ 5
21,"CNc1nccc(-c2cccnc2Oc2ccc(Nc3nc4cc(F)ccc4[nH]3)cc2)n1 [Example 73, 5-fluoro-N-(4-((3-(2-(methylamino)-4-pyrimidinyl)-2-pyridinyl)oxy)phenyl)-1H-benzimidazol-2-amine]",≤ 5
22,"CNc1nccc(-c2cccnc2Oc2ccc(Nc3nc4ccccc4o3)cc2C)n1 [Example 59, N-(3-methyl-4-((3-(2-(methylamino)-4-pyrimidinyl)-2-pyridinyl)oxy)phenyl)-1,3-benzoxazol-2-amine]",≤ 5
23,"CNc1nccc(-c2cccnc2Oc2ccc(Nc3nc4cc(F)c(Cl)cc4[nH]3)cc2)n1 [Example 71, 6-chloro-5-fluoro-N-(4-((3-(2-(methylamino)-4-pyrimidinyl)-2-pyridinyl)oxy)phenyl)-1H-benzimidazol-2-amine]",≤ 5
24,"Nc1nccc(-c2cccnc2Oc2ccc(Nc3nc4ccc(F)c(F)c4[nH]3)cn2)n1 [Example 56, N-(6-((3-(2-amino-4-pyrimidinyl)-2-pyridinyl)oxy)-3-pyridinyl)-6,7-difluoro-1H-benzimidazol-2-amine]",≤ 5
25,"c1cnc(Oc2ccc(Nc3nc4ccccc4[nH]3)c3ccccc23)c(-c2ccnc(NCCCN3CCCC3)n2)c1 [Example 35, N-(4-((3-(2-((3-(1-pyrrolidinyl)propyl)amino)-4-pyrimidinyl)-2-pyridinyl)oxy)-1-naphthalenyl)-1H-benzimidazol-2-amine]",≤ 5
